# Test results as given in PubChem BioAssay AID540276 (National Center for Advancing Translational Sciences (NCATS), 2011).
# The campaign covered roughly 300,000 compounds. About 5,400 (1.8%) were called active. Inconclusive results, whose numbers are uncertain, are shown with a selection of clear calls. The call rests on the fitted dose curve; tested in HEK293 cells. Potencies of inconclusive entries are doubtful fits and often do not repeat.
# Assay: qHTS for inhibitors of binding or entry into cells for Marburg Virus
# Conditions: Marburg virus pseudotyped entry inhibition, cell reporter; series mostly up to 37.8 µM
# Potency means the concentration at half of the fitted maximal effect.
row,Structure (SMILES),Potency
1,COCc1cc(=O)[nH]c(Nc2nc(C)c3cc(OC)ccc3n2)n1,inactive
2,CCOC(=O)c1c(C)[nH]c(C(=O)COC(=O)c2c(CC)noc2C)c1C,inactive
3,CCOC(=O)N1CCc2c(sc3c2c(=O)n(Cc2ccccc2)c(=O)n3Cc2c(F)cccc2Cl)C1,inactive
4,O=C(O)c1ccc(N=NN2CCCCCC2)cc1,"inconclusive: 12.6 µM [inhibitor, single point]"
5,COC(=O)N1N=C(c2ccccc2)CC1(O)C(F)(F)F (centres undefined),inactive
6,CCOC(=O)C1=C(C)N(C)C(=O)NC1c1c(O)ccc2ccccc12 (centres undefined),"inconclusive: 3.55 µM [inhibitor, single point]"
7,CCN(CC)CC(=O)Nc1ccc2c(c1)Nc1ccccc1CC2,"inconclusive: 35.5 µM [inhibitor, single point]"
8,CCCCCCNC(=O)CCNS(=O)(=O)c1ccc(C)cc1,"inconclusive: 0.316 µM [activator, full curve, poor fit]"
9,CC(=O)Cn1nnc2sc(-c3ccccc3)cc2c1=O,"inconclusive: 35.5 µM [activator, single point]"
10,Cc1c(Cl)cccc1Nc1sc(C(=O)c2ccccc2)c(N)c1S(=O)(=O)c1ccccc1,"inconclusive: 1.78 µM [inhibitor, partial curve, poor fit]"
11,COc1ccccc1NC(=O)N1c2ccc(F)cc2CCC1C (centres undefined),inactive
12,C=CCNC(=S)N1CCN(c2cccc(C(F)(F)F)c2)CC1,"inconclusive: 35.5 µM [inhibitor, single point]"
13,Cc1cc(C)nc(SCC(=O)c2c(N)n(C)c(=O)n(C)c2=O)n1,"inconclusive: 3.26 µM [activator, partial curve, poor fit]"
14,CSc1ccccc1C(=O)OCC(=O)N1CCCCCC1,"inconclusive: 11.2 µM [activator, partial curve, poor fit]"
15,O=C(CN(c1ccc(Cl)cc1)S(=O)(=O)c1ccccc1)N1CCN(c2ccccc2)CC1,"inconclusive: 20.6 µM [inhibitor, single point]"
16,O=C(NC1CCCCCCC1O)c1ccccc1 (centres undefined),"inconclusive: 7.94 µM [activator, partial curve, poor fit]"
17,COc1ccc(-n2c(O)c(/C=C3\C=Nc4ccc(Br)cc43)c(=O)[nH]c2=O)c(OC)c1,"inconclusive: 14.1 µM [inhibitor, single point]"
18,O=C(C1CC(=O)N(C2CCCC2)C1)N1CCN(c2ccccc2)CC1 (centres undefined),"inconclusive: 12.6 µM [activator, single point]"
19,CC(=O)Nc1ccc(/C=C/c2ccc3c([N+](=O)[O-])cccc3n2)cc1,inactive

# Four entries from above in a different format:
row	Structure (SMILES)	Potency
16	O=C(NC1CCCCCCC1O)c1ccccc1 (centres undefined)	inconclusive: 7.94 µM [activator, partial curve, poor fit]
17	COc1ccc(-n2c(O)c(/C=C3\C=Nc4ccc(Br)cc43)c(=O)[nH]c2=O)c(OC)c1	inconclusive: 14.1 µM [inhibitor, single point]
18	O=C(C1CC(=O)N(C2CCCC2)C1)N1CCN(c2ccccc2)CC1 (centres undefined)	inconclusive: 12.6 µM [activator, single point]
19	CC(=O)Nc1ccc(/C=C/c2ccc3c([N+](=O)[O-])cccc3n2)cc1	inactive
